Results are given in words; binding and its absence hold for the method and conditions named. In cells and extracts the contact can be indirect. Some entries that bind do so weakly or less than the wild type.
B1: BRM.C-YC (domain or fragment, UniProt Q6EVK6 953-2193)
chain: SSVNKYYTLAHAVNEVVVRQPSMLQAGTLRDYQLVGLQWMLSLYNNKLNGILADEMGLGKTVQVMALIAYLMEFKGNYGPHLIIVPNAVLVNWKSELHTWLPSVSCIYYVGTKDQRSKLFSQEVCAMKFNVLVTTYEFIMYDRSKLSKVDWKYIIIDEAQRMKDRESVLARDLDRYRCQRRLLLTGTPLQNDLKELWSLLNLLLPDVFDNRKAFHDWFAQPFQKEGPAHNIEDDWLETEKKVIVIHRLHQILEPFMLRRRVEDVEGSLPAKVSVVLRCRMSAIQSAVYDWIKATGTLRVDPDDEKLRAQKNPIYQAKIYRTLNNRCMELRKACNHPLLNYPYFNDFSKDFLVRSCGKLWILDRILIKLQRTGHRVLLFSTMTKLLDILEEYLQWRRLVYRRIDGTTSLEDRESAIVDFNDPDTDCFIFLLSIRAAGRGLNLQTADTVVIYDPDPNPKNEEQAVARAHRIGQTREVKVIYMEAVVEKLSSHQKEDELRSGGSVDLEDDMAGKDRYIGSIEGLIRNNIQQYKIDMADEVINAGRFDQRTTHEERRMTLETLLHDEERYQETVHDVPSLHEVNRMIARSEEEVELFDQMDEEFDWTEEMTNHEQVPKWLRASTREVNATVADLSKKPSKNMLSSSNLIVQPGGPGGERKRGRPKSKKINYKEIEDDIAGYSEESSEERNIDSGNEEEGDIRQFDDDELTGALGDHQTNKGEFDGENPVCGYDYPPGSGSYKKNPPRDDAGSSGSSPESHRSKEMASPVSSQKFGSLSALDTRPGSVSKRLLDDLEEGEIAASGDSHIDLQRSGSWAHDRDEGDEEQVLQPTIKRKRSIRLRPRQTAERVDGSEMPAAQPLQVDRSYRSKLRTVVDSHSSRQDQSDSSSRLRSVPAKKVASTSKLHVSSPKSGRLNATQLTVEDNAEASRETWDGTSPISSSNAGARMSHIIQKRCKIVISKLQRRIDKEGQQIVPMLTNLWKRIQNGYAAGGVNNLLELREIDHRVERLEYAGVMELASDVQLMLRGAMQFYGFSHEVRSEAKKVHNLFFDLLKMSFPDTDFREARNALSFSGSAPTLVSTPTPRGAGISQGKRQKLVNEPETEPSSPQRSQQRENSRIRVQIPQKETKLGGTTSHTDESPILAHPGELVICKKKRKDREKSGPKTRTGGSSSPVSPPPAMIGRGLRSPVSGGVPRETRLAQQQRWPNQPTHPNNSGAAGDSVGWANPVKRLRTDSGKRRPSHL

Protein sequences, listed by entry. Tags and fused reporters are not part of them.
UniProt P93002: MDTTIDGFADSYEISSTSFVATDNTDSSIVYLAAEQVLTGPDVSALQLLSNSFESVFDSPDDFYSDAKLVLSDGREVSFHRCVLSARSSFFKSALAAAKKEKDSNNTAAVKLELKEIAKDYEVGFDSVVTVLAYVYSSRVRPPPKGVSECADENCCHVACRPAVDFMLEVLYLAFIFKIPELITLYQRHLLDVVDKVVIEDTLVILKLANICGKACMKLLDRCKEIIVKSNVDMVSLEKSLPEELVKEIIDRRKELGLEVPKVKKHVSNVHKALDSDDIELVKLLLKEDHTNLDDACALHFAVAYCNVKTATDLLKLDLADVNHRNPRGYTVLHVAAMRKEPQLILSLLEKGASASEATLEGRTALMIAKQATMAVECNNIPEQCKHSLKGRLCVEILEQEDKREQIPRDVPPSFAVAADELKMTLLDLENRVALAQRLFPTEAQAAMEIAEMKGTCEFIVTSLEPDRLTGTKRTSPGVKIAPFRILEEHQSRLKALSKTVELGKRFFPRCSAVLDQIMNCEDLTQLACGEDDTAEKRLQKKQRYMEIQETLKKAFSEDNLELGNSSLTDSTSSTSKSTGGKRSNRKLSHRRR
UniProt F4JLS1: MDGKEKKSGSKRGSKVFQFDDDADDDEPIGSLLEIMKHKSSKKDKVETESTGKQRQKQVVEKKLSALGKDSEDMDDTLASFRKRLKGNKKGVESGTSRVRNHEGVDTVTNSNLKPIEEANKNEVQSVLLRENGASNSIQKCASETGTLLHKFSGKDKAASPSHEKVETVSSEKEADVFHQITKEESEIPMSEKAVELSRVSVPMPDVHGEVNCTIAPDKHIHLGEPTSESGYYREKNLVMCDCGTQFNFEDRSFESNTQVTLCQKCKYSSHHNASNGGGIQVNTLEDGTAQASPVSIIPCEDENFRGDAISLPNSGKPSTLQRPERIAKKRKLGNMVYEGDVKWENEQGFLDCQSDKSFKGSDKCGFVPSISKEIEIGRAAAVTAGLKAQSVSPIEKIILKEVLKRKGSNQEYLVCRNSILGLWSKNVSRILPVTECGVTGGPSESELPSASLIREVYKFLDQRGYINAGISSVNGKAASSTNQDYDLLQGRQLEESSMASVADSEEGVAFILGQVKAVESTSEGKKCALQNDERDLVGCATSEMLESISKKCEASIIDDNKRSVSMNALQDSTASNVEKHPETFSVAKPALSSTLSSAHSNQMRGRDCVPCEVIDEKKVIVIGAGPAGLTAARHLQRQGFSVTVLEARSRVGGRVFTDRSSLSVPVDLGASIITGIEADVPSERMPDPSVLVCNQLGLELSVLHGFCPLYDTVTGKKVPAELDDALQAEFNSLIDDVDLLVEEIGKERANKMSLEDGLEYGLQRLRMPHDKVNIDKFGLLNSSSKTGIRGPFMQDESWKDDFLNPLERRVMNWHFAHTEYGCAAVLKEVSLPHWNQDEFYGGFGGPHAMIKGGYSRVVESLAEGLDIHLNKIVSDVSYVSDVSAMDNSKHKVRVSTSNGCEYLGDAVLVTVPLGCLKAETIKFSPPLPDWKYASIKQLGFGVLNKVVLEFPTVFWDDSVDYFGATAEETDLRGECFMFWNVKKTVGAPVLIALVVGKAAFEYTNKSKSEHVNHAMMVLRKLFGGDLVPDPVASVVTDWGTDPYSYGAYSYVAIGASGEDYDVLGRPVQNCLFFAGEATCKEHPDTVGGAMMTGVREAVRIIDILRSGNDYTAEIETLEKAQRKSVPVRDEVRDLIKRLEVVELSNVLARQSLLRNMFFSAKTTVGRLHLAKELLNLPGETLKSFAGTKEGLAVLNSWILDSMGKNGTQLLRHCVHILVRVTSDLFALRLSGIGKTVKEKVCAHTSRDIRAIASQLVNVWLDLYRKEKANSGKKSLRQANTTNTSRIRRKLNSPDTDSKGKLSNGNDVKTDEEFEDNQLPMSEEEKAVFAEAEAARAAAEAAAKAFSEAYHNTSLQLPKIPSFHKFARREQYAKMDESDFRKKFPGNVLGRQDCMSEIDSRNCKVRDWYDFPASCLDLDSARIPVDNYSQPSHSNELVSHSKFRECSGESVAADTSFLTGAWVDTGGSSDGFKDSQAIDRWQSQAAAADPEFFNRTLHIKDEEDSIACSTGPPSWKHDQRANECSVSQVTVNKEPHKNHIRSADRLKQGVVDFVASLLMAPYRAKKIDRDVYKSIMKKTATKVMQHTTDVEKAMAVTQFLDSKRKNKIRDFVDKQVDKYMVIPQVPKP

Target: NPR1-YN (Arabidopsis thaliana) (UniProt P93002)
Test: split reporter; BiFC with split YFP in N. benthamiana leaves, co-expressed with HTB1-mCherry; water (mock) or 1 mM SA for 8 h; confocal imaging of nuclei

Molecule | binding
LDL3-YC (from UniProt F4JLS1 1-1628) | binds
B1 | binds

— publication PMC11540436
